According to PubChem BioAssay AID2517 (National Center for Advancing Translational Sciences (NCATS), 2012):
Values joined by “and” are separate entries in the source; they are usually repeats but may differ in a detail not shown here. Equal values may be shown once. Shown are results outside the selection of hits, which stands elsewhere. Results filed as inconclusive are left out. Active and inactive are the calls of the source. The call rests on the fitted dose curve; in most records, active means well fitted inhibition curve with a large enough effect; inconclusive means small, poorly fitted or top-dose-only effect; inactive means no such curve, though single readings can be large or run the other way.

Chains of the proteins cited; added tags and fusions are not shown.
UniProt P27695, whole entry, looked up: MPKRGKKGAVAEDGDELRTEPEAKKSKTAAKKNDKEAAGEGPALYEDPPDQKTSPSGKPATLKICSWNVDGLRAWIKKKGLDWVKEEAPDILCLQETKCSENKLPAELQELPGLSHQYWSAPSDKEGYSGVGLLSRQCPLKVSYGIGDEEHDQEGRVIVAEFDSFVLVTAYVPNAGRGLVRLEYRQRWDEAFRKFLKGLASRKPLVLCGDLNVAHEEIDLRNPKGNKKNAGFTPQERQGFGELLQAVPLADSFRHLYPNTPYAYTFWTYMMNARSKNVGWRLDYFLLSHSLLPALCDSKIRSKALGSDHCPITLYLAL

Target: DNA repair nuclease/redox regulator APEX1 (Homo sapiens) (UniProt P27695)
Test: qHTS Assay for Inhibitors of the Human Apurinic/apyrimidinic Endonuclease 1 (APE1);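 further: plate controls were vehicle for no effect and reference inhibitor for full effect; nearly all actives have a fitted effect of over 55% in size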
Conditions: recombinant APE1, TAMRA/BHQ-2 abasic DNA cleavage fluorescence
Description: The apurinic/apyrimidinic endonuclease APE1 is the primary mammalian enzyme responsible for the removal of abasic (or AP) sites in DNA and functions centrally in the base excision DNA repair (BER) pathway. […] Thus, targeting APE1 could improve the efficacy of current treatment paradigms by promoting selective sensitization or protection of diseased and normal cells, respectively.
Inhibition of APE1 activity was screened by utilizing double-stranded short substrate containing tetrahydrofuran (THF) abasic site labeled with rhodamine-type fluorophore (TAMRA) at the 5'-end and with non-fluorescent Black Hole Quencher-2 (BHQ-2) at the opposing 3'-end. An increase in the fluorescence intensity due to incision of the abasic site by APE1 was used to measure the enzyme activity.
NIH Chemical Genomics Center [NCGC]
NIH Molecular Libraries Probe Centers Network [MLPCN]
Assay Provider: David M. Wilson, III, National Institute on Aging, NIH
Three uL of enzyme solution (0.75 nM APE1 final concentration) was dispensed to 1536-well Greiner black solid bottom plates. […] The plates were incubated for 15 min at room temperature, and then 1 uL of substrate solution (50 nM final concentration of TAMRA/BHQ-2) was added to start the reaction. The plates were immediately transferred into ViewLux High-throughput CCD imager (Perkin-Elmer) in order to measure the reaction progress in kinetic mode (three reads every 60 seconds) using 525 nm excitation and 598 nm emission fluorescence protocol. The fluorescence intensity difference between the third and the first time points was used to compute reaction progress. Results were normalized to buffer only columns and NSC13755 positive controls and negative control DMSO treated wells.

| SMILES | activity change, negative = inhibition (at 21 µM (top of the series)) | activity change, negative = inhibition (at 65.8 µM (top of the series)) |
| --- | --- | --- |
| CN1[C@@H]2CC[C@H]1CC(OC(=O)C(O)c1ccccc1)C2 (stereo partly drawn) | inactive: 0.386% | inactive: 2.17% |
| CN1C2CCC1CC(OC(=O)C(O)c1ccccc1)C2 (stereo not drawn) | – | inactive: 17.6% and inactive: 2.43% |
